# Laboratory results: the odorant receptor screen of Mainland et al. (2015)
# “And” between values parts separate entries of the source, which are not always exact repeats. Equal entries are not always repeated. Some of the results follow. Each value is one well over the wells without odorant, computed here; the data are noisy.
# Assays:
# Test in all cases: odorant receptor activation (CRE luciferase / Renilla) (fold of no-odor wells); higher = more activation
# Conditions in all cases: 100 µM
# OR7C2 clone 1292 = system: OR7C2 clone 1292
# OR7D2 clone 1405 = system: OR7D2 clone 1405
# OR7D4 clone 1298 = system: OR7D4 clone 1298
# OR7E24 P242S clone 1314 = system: OR7E24 P242S clone 1314
# OR7G1 clone 1295 = system: OR7G1 clone 1295
# [1] = system: OR7G2 V263A/F281V clone 1312
# OR7G2 clone 1475 = system: OR7G2 clone 1475
# OR7G3 clone 1297 = system: OR7G3 clone 1297
# OR8A1 clone 1503 = system: OR8A1 clone 1503
# OR8B12 clone 1731 = system: OR8B12 clone 1731
# [2] = system: OR8B3 H20R/Q24R/V34I/M114I clone 1727
# OR8B4 E22G clone 1227 = system: OR8B4 E22G clone 1227
# [3] = system: OR8B4 Y131H/C140F/C178R clone 1440
# OR8B8 clone 1226 = system: OR8B8 clone 1226
# OR8B8 clone 1504 = system: OR8B8 clone 1504
# OR8D1 clone 1142 = system: OR8D1 clone 1142
# OR8D2 clone 1179 = system: OR8D2 clone 1179
# [4] = system: OR8D4 C120Y/R133K/F200L/L283P/R298K clone 1072
# OR8G1 clone 1395 = system: OR8G1 clone 1395
# OR8G5 clone 1323 = system: OR8G5 clone 1323
SMILES,odorant receptor activation (OR7C2 clone 1292),odorant receptor activation (OR7D2 clone 1405),odorant receptor activation (OR7D4 clone 1298),odorant receptor activation (OR7E24 P242S clone 1314),odorant receptor activation (OR7G1 clone 1295),odorant receptor activation [1],odorant receptor activation (OR7G2 clone 1475),odorant receptor activation (OR7G3 clone 1297),odorant receptor activation (OR8A1 clone 1503),odorant receptor activation (OR8B12 clone 1731),odorant receptor activation [2],odorant receptor activation (OR8B4 E22G clone 1227),odorant receptor activation [3],odorant receptor activation (OR8B8 clone 1226),odorant receptor activation (OR8B8 clone 1504),odorant receptor activation (OR8D1 clone 1142),odorant receptor activation (OR8D2 clone 1179),odorant receptor activation [4],odorant receptor activation (OR8G1 clone 1395),odorant receptor activation (OR8G5 clone 1323)
C=CCc1ccc(OC(C)=O)c(OC)c1 [eugenol acetate],1.18,1.77,1.39,1.61,1.88,1.57,1.43,1.82,2.36,1.64,1.54,1.5,1.88,1.39,1.69,2.38,1.51,2.08,1.4,1.56
C=CCc1ccc(O)c(OC)c1 [eugenol],1.08 and 1.04,1.59 and 1.36,3.88 and 1.42,2.63 and 1.26,2.77 and 1.28,0.554 and 1.18,1.25 and 0.929 and 0.943,1.22 and 1.39,1.29 and 1 and 1.55,1.03,0.778,1.75 and 1.32,1.51 and 1.4,1.52 and 1.23,1.8 and 0.937 and 1.32,4.19 and 1.71,2.08 and 1.22,1.75 and 1.68,1.55 and 1.37,1.07 and 1.49
CC12CCC(C1)C(C)(C)C2=O (stereo not given) [fenchone],0.972,1.15,1,0.99,1.05,1.09,0.806,1,1.28,0.914,0.66,0.996,1.06,0.797,1.05,1.23,0.848,1.08,0.88,1.02
COc1ccccc1O [guaiacol],0.845 and 1.32,0.718,0.982 and 0.918,1.05,0.978 and 0.876,1.22 and 0.875,0.943 and 1.17,0.783 and 0.882,1.01 and 0.992,0.852,0.656,0.968,0.809,0.931,0.712 and 1.14,0.95,0.915,2.78,0.6,0.801 and 1.02
C=CC(C)(O)CCC=C(C)C (stereo not given) [linalool],1.12,0.851,0.906,0.813,1.23,0.804,1.2,0.865,0.784,1.1,0.846,1.12,1.15,1.15,0.806,1.03,0.885,1.09,1.02,0.972
CC(=O)OCC=C(C)CCC=C(C)C [geranyl acetate],1.05 and 1.39,1.28,0.87 and 1.38,1.33 and 1.11,0.942 and 1.08,1.68 and 1.03,1.18 and 1.49,0.928 and 1.01,1.02 and 1.26,1.12,1.24,0.912,1.1,1,0.919 and 1.39,0.995,1.08,1.68,0.873,0.701 and 1.06
CC/C=C\CCO [cis-3-hexen-1-ol],0.706,0.342,0.761,0.833,0.968,0.825,1.13,0.935,0.822,0.836,1.01,0.816,0.117,0.708,0.82,1.04,0.953,0.964,0.257,0.916
CCCCCCCCC=O [nonyl aldehyde],0.933,0.781,0.943,0.841,1.14,0.942,0.997,0.948,0.831,0.741,1,1.43,0.947,1.11,1.07,1.04,1.12,0.953,1.14,0.833
C=C(C)C1CC=C(C)C(=O)C1 (stereo not given) [r-carvone],0.69,1.13,0.697,0.87,0.739,0.926,0.82,0.86,0.886,0.672,1.6,1.65,1.1,0.913,1.08,0.934,0.843,1.29,1.07,0.652
CC(=O)OC1CC2CCC1(C)C2(C)C (stereo not given) [isobornyl acetate],1.19,0.825,1.04 and 1.12,0.929 and 0.907,0.821 and 0.998,1.07 and 0.781,1.23 and 1.25,0.751 and 0.669,0.944 and 1.6,1.01,0.886,1.28,0.863,0.917,0.837 and 1.2,1.15,1.06,2.11,0.822,0.761 and 0.801
"CC1CCC(C(C)C)C(O)C1 (single isomer, unassigned; (-)) [(-)-menthol]",0.735,0.673,0.717,0.535,0.764,0.808,2.97,0.512,3.36,0.985,0.114,0.983,0.677,0.99,3.34,0.808,0.941,2.36,1.26,0.693
c1ccc(Oc2ccccc2)cc1 [diphenyl ether],1.04,0.868,1.08,0.885,1.08,0.875,0.857,1.04,1.34,0.777,0.448,0.991,1.13,0.912,1.11,1.24,0.963,1.03,1.08,1.03
CC(=O)OC(C)(C)C1CC=C(C)CC1 (stereo not given) [terpinyl acetate],0.706,0.958,0.89,0.816,0.775,0.898,0.739,0.839,0.959,0.843,0.163,1.48,0.869,1.12,1.02,1.23,1.19,1.36,0.844,0.828
CC12CCC(CC1)C(C)(C)O2 [cineole],0.905,0.272,0.931,0.662,0.899,0.934,1.06,0.863,1.06,0.879,0.659,0.908,0.112,0.759,0.849,0.772,0.809,0.867,0.213,0.961
CCCCCCCOC(C)=O [heptyl acetate],0.869 and 0.822,0.985,0.859 and 1.29,0.906 and 0.86,0.998 and 1.11,1.07 and 0.748,0.917 and 1.33,0.641 and 0.924,0.772 and 1.21,0.774,1.21,1.08,0.998,0.866,0.732 and 1.4,1.17,0.948,2.04,0.77,0.822 and 0.965
CCCCCCCCCCC=O [undecanal],0.919,0.955,0.887,1.01,0.946,0.903,0.915,0.867,1.13,1.03,0.156,1.02,0.983,0.691,1.13,0.926,0.921,1.19,1.17,0.857
c1cnccn1 [pyrazine],0.771,1.38,0.796,1.04,0.818,0.911,0.618,0.804,0.74,0.796,1.01,1.23,1.06,0.944,0.922,0.873,1.01,0.988,1.22,0.793
CCCC(=O)O [butyric acid],0.636,0.304,0.771,0.699,0.968,0.973,1.38,0.772,1.2,0.993,0.51,1.04,0.131,0.884,1.22,1.14,1.14,1,0.222,0.832
CC(=O)C(C)=O [diacetyl],0.956,1.31,0.957,1.09,0.999,1.19,0.952,1.23,1.71,0.901,0.361,1.23,1.52,1.24,1.23,1.45,0.935,1.16,1.55,0.974
O=CCc1ccccc1 [phenyl acetaldehyde],1.04,1.57,1.03,1.02,1.11,1.44,1.14,1.12,1.12,2.6,1.91,1.46,1.42,0.927,1.2,1.43,1.26,1.43,1.8,1.07
CC1=CCC(C(C)(C)O)CC1 (stereo not given) [terpineol],0.939,1.09,0.923,1.07,1.04,0.985,0.605,0.733,0.918,0.632,0.15,1.2,1.06,1.09,0.84,1.22,0.944,1.24,1.13,0.882
CCCCCC(=O)O [caproic acid],0.665,0.315,0.81,0.738,0.861,0.661,1,0.976,1.2,0.661,0.434,0.984,0.125,0.852,0.921,1.02,0.958,1,0.227,0.823
CCCCCCOC(=O)CCC [hexyl butyrate],1.29 and 1.21,0.71,1.09 and 1.03,0.863 and 0.983,0.948 and 0.965,0.884 and 0.556,1.38 and 0.942,0.862 and 0.708,1.22 and 0.786,0.936,0.764,1.23,0.822,1.08,1.04 and 1.07,1,1.13,0.983,0.608,0.815 and 0.957
COc1cc(C=O)ccc1O [vanillin],0.998,0.958,0.898,0.974,1.02,0.957,1.15,0.875,1.01,0.675,0.557,1.46,0.832,0.874,1.15,1.35,0.839,1.1,0.931,0.881
CC(C)CC(=O)O [isovaleric acid],1.04,0.797,0.765,0.778,0.9,0.884,1.06,0.956,0.871,1.35,0.992,1.33,0.924,1.47,1,1.07,0.983,1.31,0.978,0.668
CC(C)C=O [isobutyraldehyde],1.06 and 1.38,0.78,0.914 and 0.907,0.886 and 1.18,0.868 and 0.962,1.39 and 0.698,0.893 and 1.07,0.697 and 0.838,0.934 and 0.988,1.01,0.845,0.941,0.831,0.768,0.953 and 1.19,0.994,1.01,1.18,0.719,0.72 and 1
CC(C)CCC(=O)O [4-methylvaleric acid],1.45,0.699,0.825,1.44,1.14,1.1,0.766,0.746,0.828,0.8,0.739,1.6,0.737,1.05,1.01,0.981,0.754,1.4,1.18,1.04

# Reprinted at random: 2 records from the list
SMILES,odorant receptor activation (OR7C2 clone 1292),odorant receptor activation (OR7D2 clone 1405),odorant receptor activation (OR7D4 clone 1298),odorant receptor activation (OR7E24 P242S clone 1314),odorant receptor activation (OR7G1 clone 1295),odorant receptor activation [1],odorant receptor activation (OR7G2 clone 1475),odorant receptor activation (OR7G3 clone 1297),odorant receptor activation (OR8A1 clone 1503),odorant receptor activation (OR8B12 clone 1731),odorant receptor activation [2],odorant receptor activation (OR8B4 E22G clone 1227),odorant receptor activation [3],odorant receptor activation (OR8B8 clone 1226),odorant receptor activation (OR8B8 clone 1504),odorant receptor activation (OR8D1 clone 1142),odorant receptor activation (OR8D2 clone 1179),odorant receptor activation [4],odorant receptor activation (OR8G1 clone 1395),odorant receptor activation (OR8G5 clone 1323)
CC1=CCC(C(C)(C)O)CC1 (stereo not given) [terpineol],0.939,1.09,0.923,1.07,1.04,0.985,0.605,0.733,0.918,0.632,0.15,1.2,1.06,1.09,0.84,1.22,0.944,1.24,1.13,0.882
c1ccc(Oc2ccccc2)cc1 [diphenyl ether],1.04,0.868,1.08,0.885,1.08,0.875,0.857,1.04,1.34,0.777,0.448,0.991,1.13,0.912,1.11,1.24,0.963,1.03,1.08,1.03
